Source: the supplement of paper PMC4604168 (melanoma cell lines)
The list shows a part of the results. Repeats are few or missing, and single values can be far off.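 The apoptosis fraction was the count of cleaved-PARP antibody-stained nuclei relative to all DNA-stained nuclei, imaged in 1,536-well plates. Screening doses were set so most cells survived, and baseline and induced cleaved-PARP levels vary greatly across cell lines.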

system: WM1716; assay: cleaved PARP positive nuclei fraction relative to DMSO control; melanoma cells; higher = more apoptosis; conditions: library dose: low library concentration; 72 h

SMILES	cleaved PARP positive nuclei fraction [%]
C=CCNC1=C2C[C@@H](C)C[C@H](OC)[C@H](O)[C@@H](C)/C=C(\C)[C@H](OC(N)=O)[C@@H](OC)/C=C\C=C(/C)C(=O)NC(=CC1=O)C2=O [Tanespimycin] + Nc1cccc2c1CN(C1CCC(=O)NC1=O)C2=O [lenalidomide] (first compound 0.002 µM, partner dose 1 µM)	67.7
C=CCNC1=C2C[C@@H](C)C[C@H](OC)[C@H](O)[C@@H](C)/C=C(\C)[C@H](OC(N)=O)[C@@H](OC)/C=C\C=C(/C)C(=O)NC(=CC1=O)C2=O [Tanespimycin] + OCc1c[nH]c2ccccc12 [Indole-3-carbinol] (first compound 0.002 µM, partner dose 0.8 µM)	153
C=CCNC1=C2C[C@@H](C)C[C@H](OC)[C@H](O)[C@@H](C)/C=C(\C)[C@H](OC(N)=O)[C@@H](OC)/C=C\C=C(/C)C(=O)NC(=CC1=O)C2=O [Tanespimycin] + CC(=O)c1c(C)c2cnc(Nc3ccc(N4CCNCC4)cn3)nc2n(C2CCCC2)c1=O [palbociclib] (first compound 0.002 µM, partner dose 0.04 µM)	212
C#Cc1cccc(Nc2ncnc3cc(OCCOC)c(OCCOC)cc23)c1 [erlotinib] + Cn1c(Nc2ccc(C(F)(F)F)cc2)nc2cc(Oc3ccnc(-c4ncc(C(F)(F)F)[nH]4)c3)ccc21 [CHIR265] (first compound 0.8 µM, partner dose 0.08 µM)	265
C#Cc1cccc(Nc2ncnc3cc(OCCOC)c(OCCOC)cc23)c1 [erlotinib] + Cn1nnc2c(C(N)=O)ncn2c1=O [temozolomide] (first compound 0.8 µM, partner dose 2 µM)	82.4
Cn1c(Nc2ccc(C(F)(F)F)cc2)nc2cc(Oc3ccnc(-c4ncc(C(F)(F)F)[nH]4)c3)ccc21 + COCC[n+]1c2c(n(Cc3cnccn3)c1C)C(=O)c1ccccc1C2=O [YM155] (first compound 0.08 µM, partner dose 0.0004 µM)	90.2
Clc1ccc(Nc2nnc(Cc3ccncc3)c3ccccc23)cc1 [vatalanib] + C#Cc1cccc(Nc2ncnc3cc(OCCOC)c(OCCOC)cc23)c1 [erlotinib] (first compound 2 µM, partner dose 0.8 µM)	46.7
C=CCNC1=C2C[C@@H](C)C[C@H](OC)[C@H](O)[C@@H](C)/C=C(\C)[C@H](OC(N)=O)[C@@H](OC)/C=C\C=C(/C)C(=O)NC(=CC1=O)C2=O [Tanespimycin] + CC(C)CCN1c2nc(Nc3cc(F)c(O)c(F)c3)ncc2N(C)C(=O)C1C [BID1870] (first compound 0.002 µM, partner dose 0.2 µM)	404

Shown bar-delimited: entries from further up.
SMILES | cleaved PARP positive nuclei fraction [%]
C=CCNC1=C2C[C@@H](C)C[C@H](OC)[C@H](O)[C@@H](C)/C=C(\C)[C@H](OC(N)=O)[C@@H](OC)/C=C\C=C(/C)C(=O)NC(=CC1=O)C2=O [Tanespimycin] + Nc1cccc2c1CN(C1CCC(=O)NC1=O)C2=O [lenalidomide] (first compound 0.002 µM, partner dose 1 µM) | 67.7
C#Cc1cccc(Nc2ncnc3cc(OCCOC)c(OCCOC)cc23)c1 [erlotinib] + Cn1c(Nc2ccc(C(F)(F)F)cc2)nc2cc(Oc3ccnc(-c4ncc(C(F)(F)F)[nH]4)c3)ccc21 [CHIR265] (first compound 0.8 µM, partner dose 0.08 µM) | 265
